Data taken from patent EP0444898A1 (MERCK & CO. INC., priority 1990, dated 1991).

Assay: general procedure: Boc solid-phase peptide synthesis; chloromethylated resin (Merrifield resin); Boc-L-Pro-O-(PAM)-resin; BOP reagent/DIEA for some couplings; acid chloride coupling
Settings: for isolated mass: scale 1 mmole
[1] = whole synthesis, 214 nM, scale of the general procedure 1 mmole, head-to-tail ring
[2] = whole synthesis, 210 nM, scale of the general procedure 1 mmole
[3] = whole synthesis, HPLC (Method G), scale of the general procedure 1 mmole, head-to-tail ring
[4] = whole synthesis, HPLC (Method G), scale of the general procedure 1 mmole
[5] = whole synthesis, scale of the general procedure 1 mmole
[6] = late stage modification step, 210 nM
[7] = late stage modification step, HPLC (Method G), head-to-tail ring
[8] = whole synthesis, 210 nM, scale of the general procedure 1 mmole, head-to-tail ring
[9] = late stage modification step, HPLC (Method G)
[10] = whole synthesis, 214 nM, head-to-tail ring
[11] = late stage modification step, head-to-tail ring

c-[D-Phenylalanyl-L-(O-benzyl)-threoninyl-D-prolyl-L-prolyl-D-phenylalanyl-L-prolyl]
final HPLC purity [1]: 99%

c-[Phenytatanyl-L-isoieucinyf-D-piperazin-2-yl(4-Cbz)-D-piperazin-2-yl(4-Cbz)-D-(N^α-methyl)phenylaianyl-L-prolyl]
final HPLC purity [2]: >99%

c-[D-phenylalanyl-L-isoleucyl-D-pipecolyl-L-pipecolyl-N-methyl-D-phenylalanyl-L-pipecolyl]
final HPLC purity [3]: 98.3% pure

c-[D-Phenylalanyl-L-isoleucyl-D-pipecolyl-L-pipecolyl-N-allyl-D-phenylalanyl-L-prolyl]
final HPLC purity [3]: 96.0% pure

Cyclo[D-Trp-L-HomoPhe-D-Pip-L-Pip-D-(NaMe)-Phe-L-Pro]
final HPLC purity [4]: 99%
isolated mass (whole synthesis): 520 mg
isolated yield [5]: 63%

cyclo[D-Phe-L-Ile-D-Pip-L-Pip-3-PyrAla-L-Pro] isomer 2
final HPLC purity [4]: purity 96%
isolated mass (whole synthesis): 40 mg
isolated yield [5]: 2%

cyclo[D-Trp-L-Leu-D-Pip-L-Pip-D-His-L-Pro]
final HPLC purity [4]: purity 99%
isolated mass (whole synthesis): 150 mg
isolated yield [5]: 16%

c-[D-Tryptophanyl-L-isoleucinyl-D-pipecolyl-L-piperazin-2-yl(4-dibenzylphosphoramidyl)-D-(N^α-Me)phenylal anyl-L-prolyl]
final HPLC purity [6]: >96%

c-[D-phenylalanyl-L-isoleucyl-D-Δ-piperazyl-L-arginyl-D-(Nα-methyl)-phenylalanyl-L-prolyl]trifluoroacetate salt
final HPLC purity (late stage modification step, HPLC (Method G), trifluoroacetate salt): 93.2%

c-[D-Phenylalanyl-L-cyclohexylalanyl-D-prolyl-L-prolyl-D-phenylalanyl-L-prolyl]
final HPLC purity [2]: 99%

cyclo[D-Phe-L-Ala-D-Pip-L-Pip-D-(NαMe)Phe-L-Pro]
final HPLC purity [4]: purity 98.5%
isolated mass (whole synthesis): 202 mg
isolated yield [5]: 28%

cyclo[D-Trp-L-Phe-D-Pip-L-Pip-D-(NαMe)Phe-L-Pro]
final HPLC purity [4]: purity 99%
isolated mass (whole synthesis): 500 mg
isolated yield [5]: 65%

c-[D-Phenylalanyl-L-isoleucinyl-D-pipecolyl-L-piperazin-2-yl-D-histidinyl (BOM)-L-prolyl]
final HPLC purity [7]: >96%

c-[D-Phenylalanyl-L-isoleucyl-D-prolyl-L-prolyl-N-methyl-D-phenylalanyl-L-prolyl]
final HPLC purity [8]: >99%

c-[D-Phenylalanyl-L-isoleucyl-L-glutamyl-L-asparagyl-D-phenylalanyl-L-prolyl]
final HPLC purity [3]: 99.4% pure

c-[D-Tryptophanyl-L-isoleucinyl-D-pipecolyl-L-piperazin-2-yl-D-(Nα-methyl)phenylalanyl-L-prolyl]
final HPLC purity (late stage modification step, 210 nM, head-to-tail ring): >97%

c-[D-Tryptophanyl-L-isoleucyl-D-pipecolyl-L-lysyl-D-(N-methyl)phenylalanyl-L-prolyl]
step yield (late stage modification step): 48%
crude HPLC purity [9]: 99%

c-[D-Cyclohexylalanyl-L-isoleucyl-D-prolyl-D-phenylalanyl-L-prolyl]
final HPLC purity [2]: 99%

c-[D-Phenylalanyl-L-isoleucinyl-D-pipecolyl-L-piperazin-2-yl(4Cbz)-D-histidinyl-L-prolyl]
final HPLC purity [10]: >99%

cyclo[D-Phe-L-Ile-D-Pip-L-Pip-D-(NαMe)Phe-L-Pro]
final HPLC purity [4]: purity 99%

o-[D-Phenylalanyl-L-isoleucyl-D-pipecolyl-Nβ-(amino-ethyl)-L-asparagyl-N-methyl-D-phenylalanyl-L-prolyl]
final HPLC purity [7]: (99%)

cyclo[D-Phe-L-Ile-D-Pip-L-Pip-D-His-L-Pro]
final HPLC purity [4]: purity 99%
isolated mass (whole synthesis): 248 mg
isolated yield [5]: 28%

Cydo[D-Phe-L-lle-D-Pip-L-Pip-D-(p-amino)-Phe-L-Pro]
final HPLC purity [7]: 97.5%
step yield [11]: 92%

C-[D-Tyrosyl-L-isoleucyl-D-pipecolyl-L-lysyl-D-(N-methyl)phenylalanyl-L-prolyl]
step yield (late stage modification step): 61%
final HPLC purity [9]: 99%

c-[D-(O-Methyl)Tyrosyl-L-isoleucyl-D-pipecolyl-L-lysyl-D-(N-methyl)phenylalanyl-L-prolyl]
step yield (late stage modification step): 50%
final HPLC purity [9]: 99%

c-[D-Phenylalanyl-L-isoleucinyl-D-prolyl-L-piperazin-2-yl(4-Cbz)-D-phenylaianyl-L-prolyl]
final HPLC purity [8]: 95%

c-[D-Phenylalanyl-L-isoleucyl-D-piperazyl-L-pipecolyl-N-methyl-D-phenylalanyl-L-prolyl]
final HPLC purity [3]: 97.0% pure

c-[D-Phenylalanyl-N-methyl-L-isoleucyl-D-pipecolyl-L-pipecolyl-N-methyl-D-phenylalanyl-L-prolyl]
final HPLC purity [3]: 98.4% pure

c-[D-Phenylatanyl-L-isoleucyl-D-prolyl-L-prolyl-D-cysteinyl(Bzl)-L-prolyl]
final HPLC purity [2]: 97.5%

Cyclo[D-phenylalanyl-L-isoleucyl-D-pipecolyl-L-pipecolyl-D-([N,N-dimethylglycyl]p-amino)phenyl-alanyl-L-pr olyl]
step yield (late stage modification step): 47%
final HPLC purity [9]: 99%

Cyclo[D-Phe-L-lie-D-Pip-L-Pip-D-(N^αMe)Tyr-L-Pro]
final HPLC purity [9]: 97.5%

c-[D-Phenylalanyl-L-isoleucyl-D-Δ-piperazyl-L-pipecolyl-N-methyl-D-phenylalanyl-L-prolyl]
final HPLC purity [7]: 97.4% pure

c-[D-Phenylalanyl-L-isoleucinyl-D-pipecolyl-D-piperazin-2-yl(4-Cbz)-D-phenylalanyl-L-prolyl]
final HPLC purity [1]: 97%

cyclo[D-Phe-L-Ile-D-Piz-L-Pip-D-His-L-Pro]
final HPLC purity [4]: purity 99%
isolated mass (whole synthesis): 38 mg
isolated yield [5]: 4%

c-[D-Phenylalanyl-L-isoleucyl-D-pipecolyl-L-pipecolyl-D-phenylalanyl-L-prolyl]
final HPLC purity [3]: 95.8% pure

c-[D-Phenylalanyl-L-isoleucyl-D-prolyl-L-prolyl-D-threoninyl-L-prolyl]
final HPLC purity [8]: 99.74%

cyclo[D-Phe-L-Ile-D-Pip-L-Pip-D-(NαMe)Ala-L-Pro]
final HPLC purity [4]: purity 99%
isolated mass (whole synthesis): 340 mg
isolated yield [5]: 44%

c-[D-Phenylalanyl-L-isoleucyl-D-pipecolyl-L-aspartyl-N-methyl-D-phenylalanyl-L-prolyl]
final HPLC purity [7]: 90.4% pure

c-[D-Phenylalanyl-L-isoleucinyl-D-pipecolyl-D-piperazin-2-yl(4-Cbz)-D-histidinyl-L-prolyl]
final HPLC purity [10]: >95%

C-[D-Tryptophanyl-L-isoleucinyl-D-pipecolyl-L-piperazin-2-yl (4-t-butylacetyl)-D-(N^α-Me)phenylalanyl-L-prolyl]
final HPLC purity [6]: >98%

C-[D,L-meta-Tyrosyl-L-isoleucyl-D-pipecolyl-L-lysyl-D-(N-methyl)phenylalanyl-L-prolyl]
step yield (late stage modification step): 49%
final HPLC purity [9]: 99%

c-[D-Phenylalanyl-L-isoleucyl-D-prolyl-L-proyl-D-α-glutaminyl-glycyl]
final HPLC purity [1]: 99%

Cydo[D-Trp-L-lIe-D-Pip-L-Orn-D-Trp-L-Pro]
final HPLC purity [7]: 99%
step yield [11]: 64%

cyclo[D-Trp-L-Ile-D-Pip-L-(Cbz)Lys-D-Trp-L-Pro]
final HPLC purity [4]: purity 99%
isolated mass (whole synthesis): 650 mg
isolated yield [5]: 67%

c-[D-Phenylalanyl-L-phenylglycyl-D-prolyl-L-prolyl-D-phenylalanyl-L-prolyl]
final HPLC purity [1]: 99%

c-[D-Tryptophanyl-L-isoleucinyl-D-Δ-piperazyl-L-piperazin-2-yl(4-Cbz)-N-Me-D-phenylalanyl-L-prolyl]
final HPLC purity (whole synthesis, 259 nM, scale of the general procedure 1 mmole, head-to-tail ring): >98.4%

cyclo[D-Phe-L-Ile-D-Pip-L-(NαMe)Ala-D-(NαMe)Phe-L-Pro]
final HPLC purity [4]: purity 99%
isolated mass (whole synthesis): 470 mg
isolated yield [5]: 64%

cyclo[D-Phe-L-Ile-D-Pip-L-His-D-(NαMe)Phe-L-Pro]
final HPLC purity [4]: purity 98.5%
isolated mass (whole synthesis): 42 mg
isolated yield [5]: 5%

Cyclo[D-Phe-L-lie-D-Pip-L-Lys-D-His-L-Pro]
step yield (late stage modification step): 50%
final HPLC purity [9]: 97.5%

Cyclo[D-Phe-L-Ile-D-Pip-L-(Cbz)Lys-D-His-L-Pro]
final HPLC purity [4]: 99%
isolated mass (whole synthesis, TFA salt): 186 mg
isolated yield (whole synthesis, scale of the general procedure 1 mmole, TFA salt): 11%
